# In paper PMC10874384:
# Amino acid sequences for entries named in this document (tags omitted). A change or cut given only in a name is not applied to a line headed by its entry.
# UniProt Q09490: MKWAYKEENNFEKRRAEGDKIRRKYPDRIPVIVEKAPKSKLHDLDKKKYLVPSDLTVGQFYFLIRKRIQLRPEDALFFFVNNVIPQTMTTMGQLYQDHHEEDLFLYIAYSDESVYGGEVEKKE
# UniProt Q9U389: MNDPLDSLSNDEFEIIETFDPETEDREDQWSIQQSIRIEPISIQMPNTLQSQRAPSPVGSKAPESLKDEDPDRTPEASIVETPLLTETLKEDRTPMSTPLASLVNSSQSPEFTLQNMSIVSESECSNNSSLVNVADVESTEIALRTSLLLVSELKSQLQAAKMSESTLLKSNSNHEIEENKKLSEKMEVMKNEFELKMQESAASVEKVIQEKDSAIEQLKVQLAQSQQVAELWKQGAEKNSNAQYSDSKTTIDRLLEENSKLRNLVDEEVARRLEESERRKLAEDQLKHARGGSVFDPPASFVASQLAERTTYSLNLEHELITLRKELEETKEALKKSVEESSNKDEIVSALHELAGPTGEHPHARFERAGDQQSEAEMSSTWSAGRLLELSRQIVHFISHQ
# Results are given in words; binding and its absence hold for the method and conditions named. Binding can be weak; no strength is given.
# Molecular target: LGG-1 (LC3, GABARAP, and GATE-16 family-1), yeast two-hybrid fusion (C. elegans) (UniProt Q09490)
# Assay: two-hybrid; DupLEX-A system: bait plasmid pEG202Gtwy and prey plasmid pJG4-5Gtwy in yeast EGY48 with the lacZ reporter plasmid pSH18-34; transformants on X-gal plates; which partner was bait is not stated
row,Substance,binding
1,"ALLO-1 D11A/E12A (FIR mutant), yeast two-hybrid fusion (from UniProt Q9U389)",binds
2,"ALLO-1 E12A, yeast two-hybrid fusion (from UniProt Q9U389)",binds
3,"ALLO-1 D11A, yeast two-hybrid fusion (from UniProt Q9U389)",binds
